# Results reported in PubChem BioAssay AID1487 (National Center for Advancing Translational Sciences (NCATS), 2009).
# Some of the results follow. These are further read-outs of the screen, such as a control signal, another cell line or another target. No call is given for them. Compounds called inactive in the main read-out are mostly missing here. Words in brackets tell the shape of the fitted curve; partial curves, single points and poor fits give uncertain potencies.
# Experiment: qHTS Assay for Modulators of Lamin A Splicing
# Conditions: HeLa LMNA splicing GFP/RFP minigene ratio, 48 h
# How it was run: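 S3 HeLa cells stably expressing lamin A-EGFP splicing minigene plus DsRed2, 600 cells/well, 48 h compound exposure at 37C. Laser-scanning cytometry; analysed as GFP (500-530 nm)/RFP (575-640 nm) total intensity ratio; 0.5% DMSO vehicle.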
# [1] = measured here: RFP viability control channel
# [2] = measured here: GFP splicing reporter channel
SMILES,AC50 [1],AC50 [2]
O=C1CCCc2c1cc(-c1ccccc1)n2-c1ccccc1,"12.6 µM [rising, partial curve]",–
COc1nc(-c2ccccc2)ccc1-c1noc(COc2ccccc2)n1,"22.4 µM [rising, single point]","6.31 µM [rising, partial curve]"
O=C(c1ccccc1)N1CCN(S(=O)(=O)N2CCOCC2)CC1,"3.16 µM [falling, partial curve, poor fit]","2.82 µM [falling, partial curve]"
O=C(O)[C@@H](O)[C@@H](O)[C@H](O)[C@H](O)CO,"35.5 µM [falling, single point]",–
CCn1nc([N+](=O)[O-])c(C(C#N)c2nc3ccccc3n2C)c(Cl)c1=O (centres undefined),"14.1 µM [rising, partial curve, poor fit]",–
COc1ccccc1-c1cc(C(F)(F)F)nc(NCc2cccs2)n1,"35.5 µM [rising, single point]","15.8 µM [rising, single point]"
Cc1cc(C)cc(NC(=O)c2cc3c(=O)n(Cc4ccco4)ccc3nc2C)c1,"11.2 µM [rising, partial curve]","12.6 µM [rising, partial curve]"
CNc1c([N+](=O)[O-])cnn1-c1ccccc1F,–,"5.62 µM [falling, single point]"
N#Cc1c(NC(=O)c2cccnc2)sc2c1CCC2,"15.8 µM [rising, partial curve]",–
CCOC(=O)C(C)Sc1ncnc2c1nnn2-c1ccc(F)cc1 (centres undefined),"12.6 µM [rising, single point]",–
COc1ccc2c(CC(=O)Nc3ncc(C)s3)coc2c1,"22.4 µM [falling, single point]",–
CCOc1ccc(CNC23CN4CN(CN(C4)C2)C3)cc1,"0.0224 µM [falling, full curve, poor fit]",–
O=C(c1ccccn1)N1N=C2/C(=C/c3ccccc3)CCCC2C1c1ccccc1 (centres undefined),"14.1 µM [rising, single point]",–
Cc1nc(NC(=O)/C=C/c2ccccc2)n[nH]1,"11.2 µM [rising, partial curve]",–
COc1ccc(-c2nc(CN3CCCCC3c3cccnc3)c(C)o2)c(F)c1 (centres undefined),–,"31.6 µM [falling, partial curve, poor fit]"
CN(C)c1ccc(-c2nc(NCCc3cnc[nH]3)c3ccccc3n2)cc1,"20 µM [falling, single point]","20 µM [falling, partial curve, poor fit]"
O=c1c(O)c(-c2ccc(O)cc2)oc2cc(O)cc(O)c12,"3.55 µM [falling, partial curve, poor fit]","4.47 µM [falling, partial curve, poor fit]"
O=C1CCCc2c1cc(C(=O)O)c(=O)n2-c1ccccc1,–,"0.251 µM [falling, full curve, poor fit]"
COc1ccccc1CNc1ncncc1-c1ccoc1,–,"25.1 µM [falling, partial curve, poor fit]"

SMILES,AC50 [1],AC50 [2]
CCOc1ccc2nc(N3CCC(C(=O)N4CCN(C5CCCCC5)CC4)CC3)sc2c1,"2.24 µM [rising, partial curve]",–
O=C(c1cnc(N2CCCCC2)c2ccccc12)N1CCN(c2ccc(F)cc2)CC1,–,"1.41 µM [falling, partial curve, poor fit]"
Cc1cnc(CNc2ccnc(-c3c(C)noc3C)n2)cn1,–,"0.251 µM [falling, full curve, poor fit]"
CN(C)c1ccc(-c2ccc3ncnc(NC4CC4)c3c2)cc1,"1.41 µM [falling, partial curve]","2.24 µM [falling, partial curve]"
Cc1nc2ccc(NC(=O)c3nn(CC(C)C)c(=O)c4ccccc34)cc2s1,"3.98 µM [falling, single point]","3.98 µM [falling, single point]"
CCOc1ccccc1CNC(=O)c1cc2oc3ccccc3c2n1CC,"11.2 µM [rising, partial curve]",–
Cc1ccn2c(-c3csc(NCc4ccccc4)n3)c(C)nc2c1,"25.1 µM [rising, partial curve]","35.5 µM [rising, single point]"
Cc1ccc(-c2csc(NC(=O)CSc3nnc4c(n3)[nH]c3ccccc34)n2)cc1,"5.62 µM [rising, full curve, poor fit]",–
Cc1ccsc1/C=N/N=C1\C(=O)Nc2ccccc21,"17.8 µM [rising, single point]",–
Cc1cc(C)c(C#N)c(SCc2c(F)cccc2[N+](=O)[O-])n1,"35.5 µM [rising, single point]",–
Cc1ccc(-c2nc3scc(CCNS(=O)(=O)c4c(C)noc4C)n3n2)cc1,–,"1.41 µM [falling, full curve, poor fit]"
CC(=O)c1c(C)[nH]c(C(=O)CSc2nc3ccccc3n2C)c1C,"4.47 µM [rising, full curve]","5.01 µM [rising, full curve]"
Cc1ccc([N+](=O)[O-])cc1N/C=C/C(=O)c1ccco1,"35.5 µM [falling, single point]","35.5 µM [falling, single point]"
COc1ccccc1Nc1cc(C)nc2c(C)ccc([N+](=O)[O-])c12,"11.2 µM [rising, single point]",–
N#CC(C#N)=Cc1cc2ccccc2nc1N1CCCCC1,"5.62 µM [rising, partial curve, poor fit]","0.562 µM [rising, full curve, poor fit]"
CCN1C(=O)N(S(=O)(=O)c2ccc(C)cc2)[C@@H](c2ccccc2)C(C(=O)OC)=C1C,"0.0224 µM [falling, full curve, poor fit]",–
Cc1ccc(NCc2nnc(SCC(N)=O)o2)c(C)c1,"0.447 µM [rising, full curve, poor fit]",–
COc1cc2nc(N3CCN(C(=O)C4COc5ccccc5O4)CC3)nc(N)c2cc1OC (centres undefined),"12.6 µM [rising, partial curve]",–
CCCC(=O)N(c1ccc2oc(=O)sc2c1)S(=O)(=O)c1ccccc1,"15.8 µM [rising, single point]",–

# Entries of single compounds, looked up by structure. Values in the order: AC50 [1] | AC50 [2]
# CCOc1ccccc1CNC(=O)c1cc2oc3ccccc3c2n1CC as listed: 11.2 µM [rising, partial curve] | –
# CN(C)c1ccc(-c2ccc3ncnc(NC4CC4)c3c2)cc1 as listed: 1.41 µM [falling, partial curve] | 2.24 µM [falling, partial curve]
# Cc1nc2ccc(NC(=O)c3nn(CC(C)C)c(=O)c4ccccc34)cc2s1 as listed: 3.98 µM [falling, single point] | 3.98 µM [falling, single point]

# Next results

SMILES,AC50 [1],AC50 [2]
COc1ccc2c(c1)Sc1ccccc1N2,"31.6 µM [rising, single point]",–
CN(C(=S)NC(=O)Cc1ccccc1)c1ccccc1,"1.58 µM [falling, full curve, poor fit]",–
COc1cc(C(=O)N2CCN(c3ncnc4sc(C)c(C)c34)CC2)cc(OC)c1OC,"2.82 µM [rising, full curve]","1.78 µM [rising, partial curve, poor fit]"
c1cncc(-c2nc(-c3ccco3)cs2)c1,"0.0282 µM [falling, full curve, poor fit]",–
CCOC(=O)N1CCN(Cc2nc3cc(NC(=O)c4cccc(C)c4)ccc3n2C(C)C)CC1,"2.51 µM [rising, partial curve]",–
CCn1nc(C)c2c(-c3ccccc3)cc(=O)n(C(C)C(=O)NCc3ccccc3OC)c21 (centres undefined),"11.2 µM [rising, single point]",–
COCC1CCN(Cc2cn(C)nc2-c2cccc(Cl)c2)C1 (centres undefined),"0.00355 µM [falling, full curve, poor fit]",–
O=C(/C=C/c1ccccc1)N1CCN(c2c(Cl)cccc2[N+](=O)[O-])CC1,"31.6 µM [rising, single point]","35.5 µM [rising, single point]"
CC(=O)N1CCN(S(=O)(=O)c2cccc(C(=O)OCC(=O)N3CC(=O)Nc4ccccc43)c2)CC1,–,"0.0178 µM [falling, full curve]"
CCc1ccccc1NC(=O)CCCN1C(=O)CCn2nc(-c3cn(C)c4ccccc34)cc21,–,"22.4 µM [falling, partial curve, poor fit]"
COc1cc(Nc2nc(SCc3ccccc3Cl)nc3ccccc23)cc(OC)c1,"12.6 µM [rising, single point]",–
Cc1ccc(-c2noc(CCCC(=O)Nc3cccnc3)n2)cc1,"12.6 µM [rising, partial curve]",–
COCCNC(=O)c1ccc(CN2CCc3ccccc3C2)cc1,–,"12.6 µM [rising, partial curve]"
O=C(O[C@@H]1OC2COC(=O)c3cc(O)c(O)c(O)c3-c3c(cc(O)c(O)c3O)C(=O)O[C@@H]([C@H]1O)[C@@H]2O)c1cc(O)c(O)c(O)c1,"5.62 µM [rising, single point]",–
CCOc1ccc(CCNC(=O)c2ccc(CNS(=O)(=O)c3ccccc3)cc2)cc1OCC,"10 µM [rising, partial curve]",–
CCN(CC(=O)NC1CCS(=O)(=O)C1)c1nc(-c2cccnc2)nc2ccccc12 (centres undefined),"35.5 µM [rising, single point]","35.5 µM [rising, single point]"
COc1ccc(-c2[nH]ncc2-c2ccc3c(c2)OCCO3)c(O)c1,"14.1 µM [rising, partial curve]","14.1 µM [rising, partial curve, poor fit]"
COc1ccc(-c2cnc(SCC(=O)Nc3cc(C)on3)n2Cc2ccco2)cc1,"1 µM [falling, partial curve, poor fit]",–
COc1ccccc1N/C(=N/S(=O)(=O)c1ccc(Cl)cc1)c1ccccc1,"3.16 µM [falling, single point]","3.16 µM [falling, single point]"
